Results published in US7745377B2 (priority 2000, dated 2010).

Assay: general procedure: Boc solid-phase peptide synthesis; TAMPAL thioester-linker resin; in situ neutralization protocols; DIC/N-hydroxysuccinimide for the SAOD residue
Conditions: conjugation step

| Substance | conjugation yield | difficulty met | conjugation yield (recovered yield) |
| --- | --- | --- | --- |
| SAOD-KKKEKERPEISLPSDFEHTIH-VGFDACTGEFTGMPEQWARLLQT | ˜50% yield by HPLC quantitation | isolation of labeled SAOD-PBD by RP-HPLC proved difficult | – |
| NH2-AKAARAAAAK*AARACA-CO2H | 90% | – | 70% |
| labeled LY-(SAOD)-AGCEYRIDRVRLFVDKLDNIAQVPRVGAAHHHHHH | approximately 50% | it was difficult to achieve high yields | – |
